Test results reported in patent US20110311643A1, “SUPPLEMENTED MATRICES FOR THE REPAIR OF BONE FRACTURES” (Kuros Biosurgery AG, priority 2005, published 2011).
Not every detail of the peptide structures is certain; ends, links or a residue may be inferred. Some results were stated once for a whole list of compounds, not compound by compound.

Key:
Assay type in all cases: physicochemical
[1] = Adsorption of PTH1-34 onto HA/TCP granules (UV-Vis)
[2] = Stability of PTH / TGPTH in buffer (spiked samples, direct ELISA); details: 100 μg/ml; 50 mM mannitol in 10 mM sodium acetate buffer
Protocol: For the first release assay a fibrin matrix of 50 μl with 0.1 mg PTH or TGPTH per ml fibrin matrix was incubated at 37° C. in 10 ml buffer. Therefore, the concentration of PTH or TGPTH in the buffer in case of a total release would be 0.5 μg PTH or TGPTH/mL fibrin matrix. In order to compare the stability of PTH or TGPTH during the assay, samples of PTH or TGPTH were diluted directly in the buffer to a concentration of 0.5 μg PTH or TGPTH/mL fibrin matrix. Different buffers were tested: distilled water, phosphate buffer saline, tris-buffer saline.
Aliquots were taken at days 0, 1, 2, 4 and 6 and analysed by direct ELISA. […] Therefore, no conclusion could be made on the release data. The PTH stability was certainly affected by its low concentration and the buffers that were not optimal.
The release experiment was repeated by using a stabilizing buffer containing 50 mM mannitol in a 10 mM sodium acetate buffer. In addition, the buffer was exchanged every 2 days in order to prevent any degradation of peptide. […] The concentration of PTH or TGPTH in the buffer in case of a total release would be 100 μg/mL fibrin matrix (200 times more than before). […] Samples were collected every 2 to 4 days (with a change of buffer) during 2 weeks and analysed by direct ELISA. […]

[3] = PTH release from a fibrin matrix (direct ELISA); details: 1 mg/mL in 100 μl fibrin matrix, 1 ml stabilizing buffer exchanged every 2 days; FIG. 2

CC[C@H](C)[C@H](NC(=O)[C@H](CCC(=O)O)NC(=O)[C@H](CO)NC(=O)[C@@H](NC(=O)[C@@H](N)CO)C(C)C)C(=O)N[C@@H](CCC(N)=O)C(=O)N[C@@H](CC(C)C)C(=O)N[C@@H](CCSC)C(=O)N[C@@H](Cc1cnc[nH]1)C(=O)N[C@@H](CC(N)=O)C(=O)N[C@@H](CC(C)C)C(=O)NCC(=O)N[C@@H](CCCCN)C(=O)N[C@@H](Cc1cnc[nH]1)C(=O)N[C@@H](CC(C)C)C(=O)N[C@@H](CC(N)=O)C(=O)N[C@@H](CO)C(=O)N[C@@H](CCSC)C(=O)N[C@@H](CCC(=O)O)C(=O)N[C@@H](CCCN=C(N)N)C(=O)N[C@H](C(=O)N[C@@H](CCC(=O)O)C(=O)N[C@@H](Cc1c[nH]c2ccccc12)C(=O)N[C@@H](CC(C)C)C(=O)N[C@@H](CCCN=C(N)N)C(=O)N[C@@H](CCCCN)C(=O)N[C@@H](CCCCN)C(=O)N[C@@H](CC(C)C)C(=O)N[C@@H](CCC(N)=O)C(=O)N[C@@H](CC(=O)O)C(=O)N[C@H](C(=O)N[C@@H](Cc1cnc[nH]1)C(=O)N[C@@H](CC(N)=O)C(=O)N[C@@H](Cc1ccccc1)C(=O)O)C(C)C)C(C)C [PTH1-34]
amount of PTH1-34 present in the solution adsorbed onto the granules ([1]; HA/TCP granules, 1, 0.5, 0.25, 0.1, 0.05 mg PTH1-34/ml water, UV-Vis at 280 nm): approximately 25%
maximum amount of PTH1-34 on the matrix ([1]; HA/TCP matrix): 1 mg of PTH on 1 g of matrix
time stable in stabilizing buffer [2]: ≥ 2 weeks
released from the fibrin matrix after day 3 [3]: ~60%

CC[C@H](C)[C@H](NC(=O)[C@H](CCC(=O)O)NC(=O)[C@H](CO)NC(=O)[C@@H](NC(=O)[C@H](CO)NC(=O)[C@H](CC(C)C)NC(=O)[C@@H]1CCCN1C(=O)[C@H](CO)NC(=O)[C@@H](NC(=O)[C@H](CCC(N)=O)NC(=O)[C@H](CCC(=O)O)NC(=O)[C@H](CCC(N)=O)NC(=O)[C@@H](N)CC(N)=O)C(C)C)C(C)C)C(=O)N[C@@H](CCC(N)=O)C(=O)N[C@@H](CC(C)C)C(=O)N[C@@H](CCSC)C(=O)N[C@@H](Cc1c[nH]cn1)C(=O)N[C@@H](CC(N)=O)C(=O)N[C@@H](CC(C)C)C(=O)NCC(=O)N[C@@H](CCCCN)C(=O)N[C@@H](Cc1c[nH]cn1)C(=O)N[C@@H](CC(C)C)C(=O)N[C@@H](CC(N)=O)C(=O)N[C@@H](CO)C(=O)N[C@@H](CCSC)C(=O)N[C@@H](CCC(=O)O)C(=O)N[C@@H](CCCNC(=N)N)C(=O)N[C@H](C(=O)N[C@@H](CCC(=O)O)C(=O)N[C@@H](Cc1c[nH]c2ccccc12)C(=O)N[C@@H](CC(C)C)C(=O)N[C@@H](CCCNC(=N)N)C(=O)N[C@@H](CCCCN)C(=O)N[C@@H](CCCCN)C(=O)N[C@@H](CC(C)C)C(=O)N[C@@H](CCC(N)=O)C(=O)N[C@@H](CC(=O)O)C(=O)N[C@H](C(=O)N[C@@H](Cc1c[nH]cn1)C(=O)N[C@@H](CC(N)=O)C(=O)N[C@@H](Cc1ccccc1)C(=O)O)C(C)C)C(C)C [TGPTH1-34]
time stable in stabilizing buffer [2]: ≥ 2 weeks
released from the fibrin matrix after day 3 [3]: 13%
